The values below come from paper PMC12713080.

The target in experiment [1] is DLAT (human (endogenous in MDA-MB-231 and BT-549)) (UniProt P10515). Nature of the experiment: SDS-PAGE without dithiothreitol and immunoblot; cells treated with elesclomol alone, with IKKβ knock-down or with QNZ; lysed in EBC buffer; dithiothreitol-free loading buffer, 70 °C 10 min; 6% SDS-PAGE.
Experiment [2] addresses T1, transforming growth factor β‐activated kinase 1 (TAK1), endogenous (human (endogenous in MDA-MB-231)), O43318.
T1 chain: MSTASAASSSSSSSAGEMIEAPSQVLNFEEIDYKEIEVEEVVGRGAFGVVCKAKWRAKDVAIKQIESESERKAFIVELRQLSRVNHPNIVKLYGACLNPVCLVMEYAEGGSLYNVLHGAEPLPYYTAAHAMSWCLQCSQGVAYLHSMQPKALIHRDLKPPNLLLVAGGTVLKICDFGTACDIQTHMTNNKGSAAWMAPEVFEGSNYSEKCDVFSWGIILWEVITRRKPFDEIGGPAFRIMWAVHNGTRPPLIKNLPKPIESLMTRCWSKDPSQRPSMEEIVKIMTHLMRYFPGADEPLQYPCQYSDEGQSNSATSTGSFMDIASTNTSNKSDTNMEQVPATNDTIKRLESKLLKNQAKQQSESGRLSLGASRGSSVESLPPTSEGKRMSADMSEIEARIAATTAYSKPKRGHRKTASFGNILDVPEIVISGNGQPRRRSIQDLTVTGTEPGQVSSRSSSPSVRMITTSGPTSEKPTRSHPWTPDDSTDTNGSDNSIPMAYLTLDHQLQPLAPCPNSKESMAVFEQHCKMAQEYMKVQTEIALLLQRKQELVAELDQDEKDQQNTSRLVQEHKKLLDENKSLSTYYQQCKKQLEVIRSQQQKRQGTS
Nature of the experiment: co-IP; endogenous proteins; MDA-MB-231 cells in serum-free medium with CuSO4 (50 µM) or/and TTM (50 µM) for 14 h; lysate with anti-TAK1 antibody and protein A/G agarose 12 h at 4 °C; washed 4 times with NETN buffer (20 mM Tris-HCl pH 8.0, 150 mM NaCl, 0.5% NP-40, 1 mM EDTA). The settings on record: remark: other sources report otherwise.

The target of another experiment is T2, HA‐TAK1 (human), O43318.
T2 chain: T1 chain
The experiment can be described thus: co-IP; TAK1 wild type or copper binding-deficient TAK1, with copper (Figures S5J-L; legends not shown). Conditions: remark: other sources report otherwise.

Another experiment addresses T3, HA‐TAK1 (human) (UniProt O43318).
T3 sequence: T1 chain
Described as above.

The target of a further experiment is T4, HA‐TAK1‐2A (human) (UniProt O43318).
T4 sequence: T1 chain with H154A, M196A
The description is as above.

The target in experiment [3] is T5, transforming growth factor β‐activated kinase 1 (TAK1), endogenous (human (endogenous in MDA-MB-231)) (UniProt O43318).
T5 sequence: T1 chain
Nature of the experiment: co-IP; endogenous proteins; MDA-MB-231 cells in serum-free medium with CuSO4 (50 µM) or/and TTM (50 µM) for 14 h; lysate with anti-TAK1 antibody and protein A/G agarose 12 h at 4 °C; washed 4 times with NETN buffer (20 mM Tris-HCl pH 8.0, 150 mM NaCl, 0.5% NP-40, 1 mM EDTA).

Where a chain is given by its changes, count along the chain named. Results are given in words; binding and its absence hold for the method and conditions named. For part of these data: Binding seen in cells or lysates may run through a third protein. Some entries that bind do so weakly or less than the wild type. For part of these data: Where a sequence is shown, tags or fusion partners need not be part of it.

B1: DLAT (protein, UniProt P10515 87-647)
chain: SLPPHQKVPLPSLSPTMQAGTIARWEKKEGDKINEGDLIAEVETDKATVGFESLEECYMAKILVAEGTRDVPIGAIICITVGKPEDIEAFKNYTLDSSAAPTPQAAPAPTPAATASPPTPSAQAPGSSYPPHMQVLLPALSPTMTMGTVQRWEKKVGEKLSEGDLLAEIETDKATIGFEVQEEGYLAKILVPEGTRDVPLGTPLCIIVEKEADISAFADYRPTEVTDLKPQVPPPTPPPVAAVPPTPQPLAPTPSAPCPATPAGPKGRVFVSPLAKKLAVEKGIDLTQVKGTGPDGRITKKDIDSFVPSKVAPAPAAVVPPTGPGMAPVPTGVFTDIPISNIRRVIAQRLMQSKQTIPHYYLSIDVNMGEVLLVRKELNKILEGRSKISVNDFIIKASALACLKVPEANSSWMDTVIRQNHVVDVSVAVSTPAGLITPIVFNAHIKGVETIANDVVSLATKAREGKLQPHEFQGGTFTISNLGMFGIKNFSAIINPPQACILAIGASEDKLVPADNEKGFDVASMMSVTLSCDHRVVDGAVGAQWLAEFRKYLEKPITMLL
Take B1: the binding entry in experiment [1] is “binds”.

B2: IκB kinase β (IKKβ), endogenous, O14920 1-756 (protein)
chain: MSWSPSLTTQTCGAWEMKERLGTGGFGNVIRWHNQETGEQIAIKQCRQELSPRNRERWCLEIQIMRRLTHPNVVAARDVPEGMQNLAPNDLPLLAMEYCQGGDLRKYLNQFENCCGLREGAILTLLSDIASALRYLHENRIIHRDLKPENIVLQQGEQRLIHKIIDLGYAKELDQGSLCTSFVGTLQYLAPELLEQQKYTVTVDYWSFGTLAFECITGFRPFLPNWQPVQWHSKVRQKSEVDIVVSEDLNGTVKFSSSLPYPNNLNSVLAERLEKWLQLMLMWHPRQRGTDPTYGPNGCFKALDDILNLKLVHILNMVTGTIHTYPVTEDESLQSLKARIQQDTGIPEEDQELLQEAGLALIPDKPATQCISDGKLNEGHTLDMDLVFLFDNSKITYETQISPRPQPESVSCILQEPKRNLAFFQLRKVWGQVWHSIQTLKEDCNRLQQGQRAAMMNLLRNNSCLSKMKNSMASMSQQLKAKLDFFKTSIQIDLEKYSEQTEFGITSDKLLLAWREMEQAVELCGRENEVKLLVERMMALQTDIVDLQRSPMGRKQGGTLDDLEEQARELYRRLREKPRDQRTEGDSQEMVRLLLQAIQSFEKKVRVIYTQLSKTVVCKQKALELLPKVEEVVSLMNEDEKTVVRLQEKRQKELWNLLKIACSKVRGPVSGSPDSMNASRLSQPGQLMSQPSTASNSLPEPAKKSEELVAEAHNLCTLLENAIQDTVREQDQSFTALDWSWLQTEEEEHSCLEQAS
For B2, the binding entry in experiment [2] is recorded as “binds”.

B3: IKKβ (construct of the supplementary figures not shown), O14920 1-756 (protein)
chain: B2 chain
As for B3, the binding entry with HA‐TAK1 (human), O43318 is on record as “binds”.

B4: TAB1 (protein, UniProt Q15750 1-504)
chain: MAAQRRSLLQSEQQPSWTDDLPLCHLSGVGSASNRSYSADGKGTESHPPEDSWLKFRSENNCFLYGVFNGYDGNRVTNFVAQRLSAELLLGQLNAEHAEADVRRVLLQAFDVVERSFLESIDDALAEKASLQSQLPEGVPQHQLPPQYQKILERLKTLEREISGGAMAVVAVLLNNKLYVANVGTNRALLCKSTVDGLQVTQLNVDHTTENEDELFRLSQLGLDAGKIKQVGIICGQESTRRIGDYKVKYGYTDIDLLSAAKSKPIIAEPEIHGAQPLDGVTGFLVLMSEGLYKALEAAHGPGQANQEIAAMIDTEFAKQTSLDAVAQAVVDRVKRIHSDTFASGGERARFCPRHEDMTLLVRNFGYPLGEMSQPTPSPAPAAGGRVYPVSVPYSSAQSTSKTSVTLSLVMPSQGQMVNGAHSASTLDEATPTLTNQSPTLTLQSTNTHTQSSSSSSDGGLFRSRPAHSLPPGEDGRVEPYVDFAEFYRLWSVDHGEQSVVTAP
In the case of B4, the binding entry (with HA‐TAK1 (human); with HA‐TAK1‐2A (human); in experiment [3]) was “binds” in each case.

B5: TAB2 (protein, UniProt Q9NYJ8 1-693)
chain: MAQGSHQIDFQVLHDLRQKFPEVPEVVVSRCMLQNNNNLDACCAVLSQESTRYLYGEGDLNFSDDSGISGLRNHMTSLNLDLQSQNIYHHGREGSRMNGSRTLTHSISDGQLQGGQSNSELFQQEPQTAPAQVPQGFNVFGMSSSSGASNSAPHLGFHLGSKGTSSLSQQTPRFNPIMVTLAPNIQTGRNTPTSLHIHGVPPPVLNSPQGNSIYIRPYITTPGGTTRQTQQHSGWVSQFNPMNPQQVYQPSQPGPWTTCPASNPLSHTSSQQPNQQGHQTSHVYMPISSPTTSQPPTIHSSGSSQSSAHSQYNIQNISTGPRKNQIEIKLEPPQRNNSSKLRSSGPRTSSTSSSVNSQTLNRNQPTVYIAASPPNTDELMSRSQPKVYISANAATGDEQVMRNQPTLFISTNSGASAASRNMSGQVSMGPAFIHHHPPKSRAIGNNSATSPRVVVTQPNTKYTFKITVSPNKPPAVSPGVVSPTFELTNLLNHPDHYVETENIQHLTDPTLAHVDRISETRKLSMGSDDAAYTQALLVHQKARMERLQRELEIQKKKLDKLKSEVNEMENNLTRRRLKRSNSISQIPSLEEMQQLRSCNRQLQIDIDCLTKEIDLFQARGPHFNPSAIHNFYDNIGFVGPVPPKPKDQRSIIKTPKTQDTEDDEGAQWNCTACTFLNHPALIRCEQCEMPRHF
As for B5, the binding result (with HA‐TAK1 (human); in the experiment with HA‐TAK1‐2A (human); in experiment [3]) was “binds” throughout.
